Data as given in PubChem BioAssay AID1259308 (NCATS, 2017).
Test: 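Genes whose loss raises luciferase production in HEK293 cells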 (primary screen). Cell system: human HEK293 embryonic kidney cells stably expressing firefly luciferase (HEK-CMV-Luc2-Hygro). Reagent: single siRNA against human genes, 0.8 pmol siRNA per well. Timing: 72 h. Read-out: 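Luciferase light (ONE-Glo) measured on one replicate plate set and viability (CellTiter-Glo) on the other, scaled to a negative control siRNA, with robust z-scores and luciferase per cell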. Reading the numbers: total luciferase, z-score: higher = more reporter protein produced. Call rule: 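Active when the median/MAD z-score for overall luciferase is greater than 3; a gene was taken forward for validation with new siRNAs if at least two of its three siRNAs passed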. Calls: active = raised luciferase; inactive = no rise.
Here is one part, drawn at random, of about 59,000 reagents. About 1,510 of them (2.6%) count as active. 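Calls use total luciferase alone and ignore viability, so some active siRNAs may act by altering cell number.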 The numbers tell different reagents against one gene apart. Further read-outs or replicates are left out here.

How did the screen score OR3A2 (GeneID 4995) #1?
total luciferase, z-score: 0.0912; Outcome: inactive

For OR3A2 (GeneID 4995) #2, what was measured?
total luciferase, z-score: -0.196; Outcome: inactive

For OR3A2 (GeneID 4995) #3, what does the deposit list?
total luciferase, z-score: 0.194; Outcome: inactive

For RPSAP20 (GeneID 127406) #1, how do the results read?
total luciferase, z-score: -2.21; Outcome: inactive

With RPSAP20 (GeneID 127406) #2, what was measured?
total luciferase, z-score: -3.13; Outcome: inactive

What is on record for RPSAP20 (GeneID 127406) #3?
total luciferase, z-score: 0.947; Outcome: inactive

How did the screen score PLCXD2 (GeneID 257068) #1?
total luciferase, z-score: -0.0759; Outcome: inactive

With PLCXD2 (GeneID 257068) #2, what does the deposit list?
total luciferase, z-score: 0.542; Outcome: inactive

For PLCXD2 (GeneID 257068) #3, what was measured?
total luciferase, z-score: 0.0426; Outcome: inactive

How did the screen score ADGRV1 (GeneID 84059) #1?
total luciferase, z-score: 0.0776; Outcome: inactive

With ADGRV1 (GeneID 84059) #2, how do the results read?
total luciferase, z-score: -0.354; Outcome: inactive

How did the screen score ADGRV1 (GeneID 84059) #3?
total luciferase, z-score: 0.0825; Outcome: inactive

For CLYBL (GeneID 171425) #1, what does the deposit list?
total luciferase, z-score: 0.821; Outcome: inactive

For CLYBL (GeneID 171425) #2, how do the results read?
total luciferase, z-score: -1.05; Outcome: inactive

With CLYBL (GeneID 171425) #3, what does the deposit list?
total luciferase, z-score: -0.971; Outcome: inactive

With RAMAC (GeneID 83640) #1, what was measured?
total luciferase, z-score: 1.23; Outcome: inactive

With RAMAC (GeneID 83640) #2, how do the results read?
total luciferase, z-score: 2.36; Outcome: inactive

Which result is listed for RAMAC (GeneID 83640) #3?
total luciferase, z-score: -0.117; Outcome: inactive

What is on record for CLTA (GeneID 1211) #1?
total luciferase, z-score: -1.28; Outcome: inactive

With CLTA (GeneID 1211) #2, what was measured?
total luciferase, z-score: 0.23; Outcome: inactive

For CLTA (GeneID 1211) #3, how do the results read?
total luciferase, z-score: -0.293; Outcome: inactive

What is on record for TMIGD1 (GeneID 388364) #1?
total luciferase, z-score: -0.705; Outcome: inactive

Which result is listed for TMIGD1 (GeneID 388364) #2?
total luciferase, z-score: 0.868; Outcome: inactive

How did the screen score TMIGD1 (GeneID 388364) #3?
total luciferase, z-score: -0.612; Outcome: inactive

What did the screen give for NARS1 (GeneID 4677) #1?
total luciferase, z-score: -2.18; Outcome: inactive

For NARS1 (GeneID 4677) #2, what was measured?
total luciferase, z-score: -1.72; Outcome: inactive

For NARS1 (GeneID 4677) #3, what does the deposit list?
total luciferase, z-score: -2.71; Outcome: inactive

No new results follow: 5 of the entries above.
PLCXD2 (GeneID 257068) #1 — total luciferase, z-score = -0.0759; Outcome = inactive
PLCXD2 (GeneID 257068) #2 — total luciferase, z-score = 0.542; Outcome = inactive
PLCXD2 (GeneID 257068) #3 — total luciferase, z-score = 0.0426; Outcome = inactive
ADGRV1 (GeneID 84059) #1 — total luciferase, z-score = 0.0776; Outcome = inactive
ADGRV1 (GeneID 84059) #2 — total luciferase, z-score = -0.354; Outcome = inactive

The results go on:
For SCP2 (GeneID 6342) #1, how do the results read?
total luciferase, z-score: 0.885; Outcome: inactive

What did the screen give for SCP2 (GeneID 6342) #2?
total luciferase, z-score: -1.55; Outcome: inactive

Which result is listed for SCP2 (GeneID 6342) #3?
total luciferase, z-score: -0.406; Outcome: inactive

For KCNK1 (GeneID 3775) #1, how do the results read?
total luciferase, z-score: -1.7; Outcome: inactive

For KCNK1 (GeneID 3775) #2, how do the results read?
total luciferase, z-score: 0.685; Outcome: inactive

What is on record for KCNK1 (GeneID 3775) #3?
total luciferase, z-score: 1.5; Outcome: inactive

What is on record for UGT2B17 (GeneID 7367) #1?
total luciferase, z-score: -0.64; Outcome: inactive

What is on record for UGT2B17 (GeneID 7367) #2?
total luciferase, z-score: -0.251; Outcome: inactive

What did the screen give for UGT2B17 (GeneID 7367) #3?
total luciferase, z-score: -0.481; Outcome: inactive

What did the screen give for WWC2-AS2 (GeneID 152641) #1?
total luciferase, z-score: 0.944; Outcome: inactive

Which result is listed for WWC2-AS2 (GeneID 152641) #2?
total luciferase, z-score: -1.28; Outcome: inactive

How did the screen score WWC2-AS2 (GeneID 152641) #3?
total luciferase, z-score: -1.44; Outcome: inactive

How did the screen score PTTG1IP (GeneID 754) #1?
total luciferase, z-score: -2.16; Outcome: inactive

For PTTG1IP (GeneID 754) #2, what was measured?
total luciferase, z-score: -0.509; Outcome: inactive

What is on record for PTTG1IP (GeneID 754) #3?
total luciferase, z-score: -0.259; Outcome: inactive
